{"source": "PubChem BioAssay AID743121 (NCATS, 2013)", "test": "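Genes whose silencing strengthens cell killing by camptothecin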 (primary screen)", "system": "MDA-MB-231 cells, a human breast cancer line", "knock-down reagent": "single siRNA against human genes, 20 nM siRNA (0.8 pmol per well)", "time to read-out": "120 h (drug added 48 h after transfection, read 72 h later)", "conditions": "camptothecin 20 nM (about EC30) for 72 h; vehicle 0.1% DMSO in parallel plates", "detection": "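Cell viability by ATP luminescence (CellTiter-Glo) as % of non-targeting siRNA wells, and the log2 ratio of viability without drug over viability with camptothecin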", "scale": "log2 vehicle/camptothecin viability: higher = stronger sensitisation to camptothecin", "active means": "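Each gene scored by redundant siRNA activity (RSA) over its individual siRNA ratios; a gene is called active at p < 0.001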", "note": "Shown is a random part of about 26,000 reagents. In the full data, 167 (0.63%) are marked active. 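Calls are per gene from RSA p-values that are not deposited; an individual active-marked siRNA can sensitise only weakly.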 A number with no mark means an inactive call. The numbers tell different reagents against one gene apart. Not all columns of the deposit are shown. Reagent sequences are not shown."}
{"target gene":"PMS2P1","reagent no.":1,"log2 vehicle/camptothecin viability":-0.528}
{"target gene":"CYP7A1","reagent no.":1,"log2 vehicle/camptothecin viability":0.0284}
{"target gene":"CYP7A1","reagent no.":2,"log2 vehicle/camptothecin viability":-0.245}
{"target gene":"CYP7A1","reagent no.":3,"log2 vehicle/camptothecin viability":-0.302}
{"target gene":"CYP7A1","reagent no.":4,"log2 vehicle/camptothecin viability":-0.342}
{"target gene":"UHRF2","reagent no.":1,"log2 vehicle/camptothecin viability":-0.134}
{"target gene":"UHRF2","reagent no.":2,"log2 vehicle/camptothecin viability":-0.515}
{"target gene":"UHRF2","reagent no.":3,"log2 vehicle/camptothecin viability":-0.119}

The list goes on (2 carried over from the part before).
{"target gene":"UHRF2","reagent no.":2,"log2 vehicle/camptothecin viability":-0.515}
{"target gene":"UHRF2","reagent no.":3,"log2 vehicle/camptothecin viability":-0.119}
{"target gene":"GLUD1","reagent no.":1,"log2 vehicle/camptothecin viability":-0.232}
{"target gene":"GLUD1","reagent no.":2,"log2 vehicle/camptothecin viability":-0.134}
{"target gene":"OR7E91P","reagent no.":1,"log2 vehicle/camptothecin viability":0.13}
{"target gene":"OR7E91P","reagent no.":2,"log2 vehicle/camptothecin viability":-0.258}
{"target gene":"OR7E91P","reagent no.":3,"log2 vehicle/camptothecin viability":0.383}
{"target gene":"OR7E91P","reagent no.":4,"log2 vehicle/camptothecin viability":0.00594}
{"target gene":"OR7E91P","reagent no.":5,"log2 vehicle/camptothecin viability":0.564}
{"target gene":"OR7E91P","reagent no.":6,"log2 vehicle/camptothecin viability":-0.306}
{"target gene":"CNTF","reagent no.":1,"log2 vehicle/camptothecin viability":-0.223}
{"target gene":"CNTF","reagent no.":2,"log2 vehicle/camptothecin viability":-0.153}
{"target gene":"CNTF","reagent no.":3,"log2 vehicle/camptothecin viability":-0.136}
{"target gene":"CNTF","reagent no.":4,"log2 vehicle/camptothecin viability":-0.0893}
{"target gene":"PKIB","reagent no.":1,"log2 vehicle/camptothecin viability":-0.346}
{"target gene":"PKIB","reagent no.":2,"log2 vehicle/camptothecin viability":-0.184}
{"target gene":"PKIB","reagent no.":3,"log2 vehicle/camptothecin viability":-0.172}
{"target gene":"PKIB","reagent no.":4,"log2 vehicle/camptothecin viability":0.203}
